Earlier results in patent US20090203786A1, “Methods and Composition for Improving Cognitive Function” (priority 2005, published 2009).
For at least one compound, name, drawing or mass did not settle the structure.

System: rat retina neuronal cells
Settings: in vitro; Rotstein, N P et al. 1999

CC/C=C\C/C=C\C/C=C\C/C=C\C/C=C\C/C=C\CCC(=O)O [DHA, docosahexaenoic acid]
DHA content of cells versus cells incubated with other fatty acids: four- to six-fold more DHA
